{
  "source": "paper PMC5737332",
  "key": {"[1]": {"target": "T1, HMGB1 box A and box B (rat) (UniProt P63159)", "T1 sequence (looked up)": "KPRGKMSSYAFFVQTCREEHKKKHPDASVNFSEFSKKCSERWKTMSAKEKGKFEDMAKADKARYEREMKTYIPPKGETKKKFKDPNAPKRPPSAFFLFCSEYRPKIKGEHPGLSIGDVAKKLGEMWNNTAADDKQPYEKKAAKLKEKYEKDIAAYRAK", "experiment": "SPR", "details": "K2, secondary site of two-site fit, likely nonspecific binding to hairpin loop; SPR (Biacore X-100), HEPES 1 buffer: 10 mM HEPES, 3 mM EDTA, 200 mM NaCl, 0.05% P-20, pH 7.4, 25 C; recombinant protein; residues 8-165; label: 5'-biotin; folded or branched DNA"}, "HMGA1a (Δ50-91) (human)": {"target": "T2, HMGA1a (Δ50-91) (human) (UniProt P17096)", "T2 sequence (looked up)": "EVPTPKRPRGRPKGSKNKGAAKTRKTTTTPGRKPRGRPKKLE", "experiment": "SPR", "details": "K2, secondary site of two-site fit, likely nonspecific binding to hairpin loop; SPR (Biacore X-100), HEPES 1 buffer: 10 mM HEPES, 3 mM EDTA, 200 mM NaCl, 0.05% P-20, pH 7.4, 25 C; recombinant protein; residues 50-91; label: 5'-biotin; folded or branched DNA"}},
  "note": "The exact form of at least one protein or probe is not confirmed. Protein sequences can lack the tags named with them.",
  "data": [
    {"sequence": "GGGGAATAATCGCGATTATTCCCCAATAATCGCGATTATT [AATAAT_ATTATT hairpin]", "values": [
      {"measurement": "Kd", "setting": "[1]", "value": 5.91, "unit": "µM"},
      {"measurement": "Kd", "setting": "HMGA1a (Δ50-91) (human)", "value": 11.3, "unit": "µM"}
    ]}
  ]
}
